Patent US20020165153

Sequences of proteins named here, by UniProt entry; tags and fusion partners are left off. A change or cut given only in a name is not applied to a line headed by its entry.
UniProt P15336: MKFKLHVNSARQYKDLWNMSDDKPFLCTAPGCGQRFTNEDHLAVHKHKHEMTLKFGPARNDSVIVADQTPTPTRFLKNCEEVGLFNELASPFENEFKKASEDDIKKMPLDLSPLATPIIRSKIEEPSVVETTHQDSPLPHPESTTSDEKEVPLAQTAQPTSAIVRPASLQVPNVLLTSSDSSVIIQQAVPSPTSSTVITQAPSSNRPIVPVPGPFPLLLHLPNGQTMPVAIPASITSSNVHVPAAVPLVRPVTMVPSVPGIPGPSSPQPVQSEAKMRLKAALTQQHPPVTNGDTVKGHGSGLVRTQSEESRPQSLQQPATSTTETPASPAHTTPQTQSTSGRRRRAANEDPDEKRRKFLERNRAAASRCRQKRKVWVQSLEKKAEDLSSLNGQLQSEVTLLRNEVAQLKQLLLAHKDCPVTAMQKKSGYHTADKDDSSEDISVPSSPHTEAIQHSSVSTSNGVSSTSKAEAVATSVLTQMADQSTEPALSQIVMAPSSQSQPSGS

What was measured:
[1] = system: ATF2-m2/cJun wt heterodimer ATF2 leucine zipper replaced by SEQ 19 (g2 L to R, g3 E to V); assay: binding assay; settings: in contrast to ATF2-m1 and m5; only the site is given
[2] = target: ATF2-m2 homodimer ATF2 leucine zipper replaced by SEQ 19 (g2 L to R, g3 E to V) (UniProt P15336); assay: binding assay; settings: only core motif of the 20 bp probe printed; only the site is given

## TTACCTCA (double strand) [20 bp Jun/ATF2 oligonucleotide (core motif)]
[1]
  binding result: binds
[2]
  binding result: binds more weakly

For at least one entry, the source does not settle the construct or the ends of the probe. For some assays here: A weaker result is weaker than the reference pair of the same experiment.
